Source: PMC1240052
No constants are given. Whether binding was seen depends on the method and setting. Binding seen in cells or lysates may run through a third protein. Some binding calls cover weakened binding; strength is not graded here.

Tests used:
[1] = biological target: L858R mutant human epidermal growth factor receptor (EGFR) (human) (UniProt P00533); assay: co-IP; EGFR precipitated with anti-EGFR conjugated beads from 200 ug lysate of NIH-3T3 cells kept in 0.5% calf serum for 24 h and left unstimulated (no EGF); lysis buffer 50 mM Tris-HCl pH 7.4, 150 mM NaCl, 2.5 mM EDTA, 1% Triton X-100, 0.25% IPEGAL; blot with anti-Shc
[2] = biological target: wild-type human epidermal growth factor receptor (EGFR) (human) (UniProt P00533); assay: as above
[3] = biological target: L858R mutant human epidermal growth factor receptor (EGFR) (human) (UniProt P00533); assay: co-IP; EGFR precipitated with anti-EGFR conjugated beads from 200 ug lysate of NIH-3T3 cells kept in 0.5% calf serum for 24 h and stimulated with 20 ng/ml EGF for 8 min; lysis buffer 50 mM Tris-HCl pH 7.4, 150 mM NaCl, 2.5 mM EDTA, 1% Triton X-100, 0.25% IPEGAL; blot with anti-Shc
[4] = biological target: wild-type human epidermal growth factor receptor (EGFR) (human) (UniProt P00533); assay: as above

binding [1]: binds weakly
binding [3]: binds
binding [4]: binds
B1: adaptor protein Shc (protein, UniProt P98083 1-579)
chain: MDLLPPKPKYNPLRNESLSSLEEGASGSTPPEELPSPSASSLGPILPPLPGDDSPTTLCSFFPRMSNLKLANPAGGRLGPKGEPGKAAEDGEGSAGAALRDSGLLPLLQDMNKLSGGGGRRTRVEGGQLGGEEWTRHGSFVNKPTRGWLHPNDKVMGPGVSYLVRYMGCVEVLQSMRALDFNTRTQVTREAISLVCEAVPGAKGATRRRKPCSRPLSSILGRSNLKFAGMPITLTVSTSSLNLMAADCKQIIANHHMQSISFASGGDPDTAEYVAYVAKDPVNQRACHILECPEGLAQDVISTIGQAFELRFKQYLRNPPKLVTPHDRMAGFDGSAWDEEEEEPPDHQYYNDFPGKEPPLGGVVDMRLREGAARPTLPSAQMSSHLGATLPIGQHAAGDHEVRKQMLPPPPCPGRELFDDPSYVNIQNLDKARQAGGGAGPPNPSLNGSAPRDLFDMKPFEDALRVPPPPQSMSMAEQLQGEPWFHGKLSRREAEALLQLNGDFLVRESTTTPGQYVLTGLQSGQPKHLLLVDPEGVVRTKDHRFESVSHLISYHMDNHLPIISAGSELCLQQPVDRKV
binding [2]: no binding (condition: cells without EGF stimulation)
